Where “and” joins values, the source holds several entries; their conditions need not be identical. Equal entries are not always repeated. Hit rate of the full screen: of about 320,000 compounds, about 22,000 (6.9%) were called active. This list was built around the results that the source calls inconclusive (neither active nor inactive); the mix of calls is not that of the screen. The call rests on the fitted dose curve; in most records, active means well fitted inhibition curve with a large enough effect; inconclusive means small, poorly fitted or top-dose-only effect, or another doubt; inactive means no such curve, though single readings can be large or run the other way. A potency beside an inconclusive call is a rough fit, not a confirmed value.
Assay: Primary qHTS for delayed death inhibitors of the malarial parasite plastid, 96 hour incubation
Conditions: P. falciparum luciferase reporter growth; series mostly up to 28.7 µM
Method in brief: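 Readout is luminescence from an integrated firefly luciferase in P. falciparum. Red cells, 2% hematocrit and 0.05% parasitemia final, were cultured with compound through two parasite generations (96 hours) at 37 C, 5% CO2.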
On the % scale 0 is the no-effect control and ±100 the full control effect; potency means the concentration at half of the fitted maximal effect.

Structure (SMILES) | Potency | activity change, negative = inhibition
O=C(c1cccc(S(=O)(=O)N2CCOCC2)c1)N1CCN(C/C=C/c2ccccc2)CC1 | inconclusive: 11.7 µM [inhibitor, partial curve, poor fit] | –
Nc1nnc(SCC(=O)c2ccc3c(c2)NC(=O)CO3)s1 | inconclusive: 2.33 µM [inhibitor, full curve, poor fit] | –
CC(=O)Nc1ccc(S(=O)(=O)NCCC(=O)OCC(=O)c2cc(C)ccc2C)cc1 | inactive | –
COc1ccc(Br)c(C(=O)OCC(=O)NC2CCCCCC2)c1 | inconclusive: 9.28 µM [inhibitor, partial curve, poor fit] | –
O=C(NC1CCCC1)c1cccc2c1C(=O)c1ccc(Cl)cc1S2(=O)=O | inconclusive: 16.5 µM [inhibitor, single point] | –
COc1cc(-c2nnc(SCC(=O)N3c4ccccc4Sc4ccccc43)o2)cc(OC)c1OC | inconclusive: 11.7 µM [inhibitor, single point] | –
C=C(C)Cn1c(-c2ccccc2)nc2ccccc21 | inconclusive: 18.5 µM [inhibitor, single point] | –
Cn1c(=O)c2sccc2n2c(CCCC(=O)NCCc3ccc(S(N)(=O)=O)cc3)nnc12 | inactive | –
Cc1ccc(S(=O)(=O)N(Cc2ccccc2)c2ccccc2C(=O)Nc2ccccc2C(=O)NCc2ccco2)cc1 | inconclusive: 8.28 µM [inhibitor, single point] | –
C#CCOCCOCCOCCNc1nc(N2CCOCC2)nc(N2CCN(C(=O)[C@H]([C@@H](C)CC)n3cc([C@@H](N)CO)nn3)CC2)n1 | inconclusive: 18.5 µM [inhibitor, single point] | –
Cn1cnnc1SCC(=O)Nc1ccccc1Sc1ccccc1 | inconclusive: 0.208 µM [inhibitor, full curve, poor fit] | –
COCCNC(=S)N/N=C(\C)c1ccccc1OC | inconclusive: 11.7 µM [inhibitor, single point] | –
CS(=O)Cc1cc(Sc2ccccc2)nc(-c2cccnc2)n1 (configuration not stated) | inconclusive: 6.57 µM [inhibitor, partial curve, poor fit] | –
CCC1CN(C(=O)N2CCC(C(=O)NCc3ccco3)CC2)c2ccccc2O1 (configuration not stated) | active: 11.7 µM | –
Nn1c(SCC(=O)Nc2ccc(F)cc2F)nnc1-c1cccnc1 | inconclusive: 18.5 µM [inhibitor, single point] | –
CO[C@@]1(NC(=O)Cc2cccs2)C(=O)N2C(C(=O)O)=C(COC(N)=O)CS[C@@H]21 | inactive | –
CCCNC(=O)c1c(N)n(-c2ccc(S(N)(=O)=O)cc2)c2nc3ccccc3nc12 | inactive | –
Cc1c(CCC(=O)O)c(=O)oc2c(C)c(OCc3cc4c(cc3Cl)OCO4)ccc12 | inactive | –
Cc1cccc(NC(=S)Nc2c(C)n(C)n(-c3ccccc3)c2=O)c1C | inactive | –
CS(=O)(=O)N(CC(=O)NCc1ccc2c(c1)OCO2)C1CCCCC1 | inconclusive: 9.28 µM [inhibitor, partial curve] | –
CC(C)C(NC(=O)CCNC(=O)c1ccc([N+](=O)[O-])cc1)c1nc2ccccc2[nH]1 (configuration not stated) | inactive | –
CN(CC(=O)Nc1ccc(Cl)c(C(F)(F)F)c1)CC(=O)NC1CCCCC1 | inconclusive: 1.47 µM [inhibitor, full curve, poor fit] | –
CC1=C(C(=O)OCC(C)C)C(c2ccc(Br)s2)NC(=O)N1 (configuration not stated) | inconclusive: 14.7 µM [inhibitor, single point] | –

3 records drawn at random from the list so far, as already listed:
Structure (SMILES) | Potency | activity change, negative = inhibition
O=C(c1cccc(S(=O)(=O)N2CCOCC2)c1)N1CCN(C/C=C/c2ccccc2)CC1 | inconclusive: 11.7 µM [inhibitor, partial curve, poor fit] | –
CCCNC(=O)c1c(N)n(-c2ccc(S(N)(=O)=O)cc2)c2nc3ccccc3nc12 | inactive | –
COc1cc(-c2nnc(SCC(=O)N3c4ccccc4Sc4ccccc43)o2)cc(OC)c1OC | inconclusive: 11.7 µM [inhibitor, single point] | –

Following part:

Structure (SMILES) | Potency | activity change, negative = inhibition
COc1ccc(C(c2c(C)[nH]n(C(N)=S)c2=O)C(C#N)C#N)cc1 (configuration not stated) | inconclusive: 11.7 µM [inhibitor, single point] | –
CSC(C(=O)c1cc2ccccc2o1)c1ccccc1 (configuration not stated) | inactive | –
CNc1nc(-c2c[nH]c3ccccc23)cs1 | inconclusive: 18.5 µM [inhibitor, single point] | –
COC(=O)c1cn(C(=O)c2ccc(OC)cc2)c2ccccc12 | inconclusive: 18.5 µM [inhibitor, single point] | –
CC1=C(C#N)C(c2ccc(O)cc2)C(C#N)=C(C)N1 | inconclusive: 4.15 µM [inhibitor, single point] | –
O=C(N/N=C1\CC2CC=CC12)c1ccc(Br)cc1 (configuration not stated) | inactive | –
COc1cc(OC)cc(-c2c(-c3cccs3)c3cc(-c4ccc5cc[nH]c5c4)ccc3n2C)c1 | inconclusive: 2.62 µM [inhibitor, full curve] | –
Cc1c(O)nc(SC2CC(=O)N(c3ccccc3)C2=O)[nH]c1=O (configuration not stated) | inconclusive: 11.7 µM [inhibitor, partial curve, poor fit] | –
CCCN(CC(=O)Nc1ccccc1C)C(=O)c1sc2ccccc2c1Cl | inactive | –
O=C(NC(=O)c1ccccc1)OCC1CCCN2CCCCC12 (configuration not stated) | inconclusive: 9.28 µM [inhibitor, partial curve] | –
COc1ccc(CCNC(=O)c2noc(C)c2[N+](=O)[O-])cc1OC | inactive | –
COc1ccc(N2CCN(S(=O)(=O)CCNC(=O)/C=C/c3ccc4c(c3)OCO4)CC2)cc1 | inconclusive: 11.7 µM [inhibitor, partial curve] | –
COc1ccc(OC)c(Nc2c3c(nc4ccccc24)CCC3)c1 | inconclusive: 10.4 µM [inhibitor, single point] | –
O=C(c1ccc2c(c1)N(Cc1ccccc1)CCS2)N1CCCCC1 | active: 0.738 µM | –
Cc1cc(C)c2nc(SCC(=O)N(C)C3CCS(=O)(=O)C3)cc(C)c2c1 (configuration not stated) | inconclusive: 13.1 µM [inhibitor, single point] | –
Cc1nc(SCC(=O)N2CCCCCC2)[nH]c(=O)c1C | inactive | –
COc1ccc(-c2[nH]c(-c3ccc4c(c3)OCO4)nc2-c2ccccc2)cc1 | inconclusive: 10.4 µM [inhibitor, single point] | –
CC12CN3CCN(CC(C3)/C1=N\NC(=O)Nc1cccc(Cl)c1)C2 | inconclusive: 10.4 µM [inhibitor, single point] | –
Oc1cccc2ccc[n+](CC(O)Cn3c4ccccc4c4ccccc43)c12 (configuration not stated) | inconclusive: 18.5 µM [inhibitor, single point] | –
FC(F)(F)c1nnc2c(Sc3ccccc3)nc3ccc(Cl)cc3n12 | inconclusive: 0.0928 µM [inhibitor, full curve, poor fit] | –
Oc1ccc(N=Nc2ccc3c(c2)OCCO3)c2ncccc12 | active: 1.04 µM | –
Cc1ccc(C)c(CN2CCN(c3ncccn3)CC2)c1 | inconclusive: 18.5 µM [inhibitor, single point] | –
COCCCn1c(=S)[nH]c(C)c(C)c1=O | inactive | –

Structure (SMILES) | Potency | activity change, negative = inhibition
O=C(CSc1ccccn1)N/N=C/c1c[nH]c2ccccc12 | inconclusive: 0.0586 µM [inhibitor, full curve] | –
COc1ccc(N(CC(=O)NC2CCCC2)C(=O)Cn2nnc(-c3ccc(C)cc3)n2)cc1OC | active: 10.4 µM | –
COc1ccc(NC(=O)c2cc3c(=O)n(C)c4ccccc4c3s2)cc1OC | inconclusive: 4.15 µM [inhibitor, single point] | –
c1ccc(NC2=NCCN2CC2CCCCCC2)cc1 | inconclusive: 18.5 µM [inhibitor, single point] | –
CCN(CC)CCCNC(=S)N(Cc1cccnc1)Cc1cc2cc(C)cc(C)c2[nH]c1=O | inconclusive: 14.7 µM [inhibitor, partial curve, poor fit] | –
Cc1ccc(-c2csc3ncn(CC(=O)NCC(c4ccco4)N4CCCC4)c(=O)c23)cc1 (configuration not stated) | inconclusive: 8.28 µM [inhibitor, partial curve, poor fit] | –
C=CCN1C(=O)/C(=C2/Sc3ccc(OC)cc3N2C)SC1=Nc1ccccc1 | – | inactive: -54.9% [at 1.15 µM]
C[C@H]1CN=C(N(C)C)N1CCc1ccc(F)cc1 | inactive | –
COc1ccc2c(C)cc(SCC(=O)Nc3cc(C(N)=O)cc(C(N)=O)c3)nc2c1 | inconclusive: 11.7 µM [inhibitor, single point] | –
CC(=O)c1ccc2c(c1)N(CCCN1CCC(CCO)CC1)c1ccccc1S2 | inconclusive: 5.73 µM [inhibitor, single point] and inconclusive: 18.5 µM [inhibitor, single point] | –
CCOC(=O)c1sc2nc(C)n(N)c(=O)c2c1C | inactive | –
O=c1[nH]c(/C=C/c2cccc3ccccc23)nc2ccccc12 | inactive | –
CCCn1c(NC(=O)C23CC4CC(CC(O)(C4)C2)C3)nc2ccccc21 | inconclusive: 10.4 µM [inhibitor, partial curve, poor fit] | –
O=C(COC(=O)C1CCN(/C=C/C(=O)C(F)(F)F)CC1)Nc1cccc(F)c1 | inactive | –
CC(=O)Nc1ccc2c(c1)nc1n2CCN(C(C)c2ccccc2)C1 (configuration not stated) | inconclusive: 20.8 µM [inhibitor, single point] | –
CCN(c1cccc(C)c1)S(=O)(=O)c1ccc2c(c1)NC(=O)CCS2 | inconclusive: 6.57 µM [inhibitor, partial curve, poor fit] | –
CSCCC(NC(=O)CCC(=O)OCC(=O)[C@@]1(O)CCC2[C@@H]3CCC4=CC(=O)C=C[C@]4(C)C3[C@@H](O)C[C@@]21C)C(=O)O (some centres not stated) | inconclusive: 8.28 µM [inhibitor, partial curve] | –
CC(C)N(Cc1nc(-c2ccccc2)no1)C(=O)Cc1ccccc1 | inconclusive: 10.4 µM [inhibitor, single point] | –
O=C(NCCCN1CCOCC1)c1ccc2c(=O)n(-c3ccc(F)c(Cl)c3)c(=S)[nH]c2c1 | inactive | –
CCn1c(=NC(=O)CS(=O)(=O)c2ccc(F)cc2)sc2cccc(OC)c21 | inconclusive: 0.657 µM [inhibitor, full curve] | –
Cc1nn(Cc2ccc(C(=O)N3c4ccc(F)cc4CCC3C)o2)c(C)c1Br (configuration not stated) | active: 13.1 µM | –

From PubChem BioAssay AID504834 (National Center for Advancing Translational Sciences (NCATS), 2011)
